PubChem BioAssay AID1259254 | NCATS | 2017

Test: 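Genome-wide screen for genes that prevent DNA re-replication in cancer cells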 (primary screen)
System: human HCT116 colorectal cancer cells
Knock-down reagent: single siRNA against human genes
Timing: 3 days
Measurement: 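Nuclei stained with Hoechst and imaged; cell-cycle phase assigned by DNA content; G2 share scaled per plate, non-targeting siRNA 0%, GMNN siRNA 100%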
Scale: G2 robust z-score and G2 cells, % of GMNN control: higher = more G2 cells, more excess DNA replication; raw share of cells in G2: higher = larger share of cells with G2 DNA content
Active means: 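Active siRNAs have a G2 robust z of 5 or more median absolute deviations over the median, which in these data means about 38% or higher of GMNN control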
This is one part, drawn at random, of about 59,000 deposited reagents. In the full data, about 1,550 (2.6%) were called active. 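G2 share is only a proxy for re-replication; each gene was hit by three separate siRNAs, and active genes were retested.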 Raw values are not corrected between plates. Unmarked entries are inactive. Reagents against one gene are numbered here. Reagent sequences are not shown. Not stated in the record: the amount of reagent.

gene symbol | reagent no. | G2 robust z-score | G2 cells, % of GMNN control | raw share of cells in G2 (%)
FBXL21P | 1 | 9.34 (active) | 68.7 | 30.2
FBXL21P | 2 | 0.746 | 8.22 | 7.5
FBXL21P | 3 | 0.433 | 6.01 | 5.4
ZNF407 | 1 | -0.0938 | 2.31 | 3.61
ZNF407 | 2 | -0.0422 | 2.67 | 7.12
ZNF407 | 3 | 2.98 | 23.9 | 11.2
NDUFC2 | 1 | -0.699 | -1.95 | 2.55
NDUFC2 | 2 | 1.24 | 11.7 | 9.87
NDUFC2 | 3 | 1.05 | 10.4 | 9.59
TMEM257 (retired record) | 1 | -0.0606 | 2.54 | 6.26
TMEM257 (retired record) | 2 | -0.774 | -2.47 | 2.91
TMEM257 (retired record) | 3 | 3.65 | 28.6 | 13.5
SLC9B1 | 1 | 0.493 | 6.44 | 5.99
SLC9B1 | 2 | -0.16 | 1.84 | 3.48
SLC9B1 | 3 | 0.975 | 9.83 | 6.49
TCTA | 1 | -0.174 | 1.74 | 5.9
TCTA | 2 | 0.109 | 3.74 | 5.38
TCTA | 3 | 2.29 | 19.1 | 10.1
LINC02843 | 1 | 0.252 | 4.74 | 5.37
LINC02843 | 2 | -0.713 | -2.05 | 2.25
LINC02843 | 3 | 0.0837 | 3.56 | 4.35
BET1 | 1 | -0.836 | -2.92 | 2.56
BET1 | 2 | 1.6 | 14.2 | 12.3
BET1 | 3 | 4.93 | 37.6 | 19.1
GATA4 | 1 | 0.229 | 4.58 | 5.28
GATA4 | 2 | 0.00413 | 3 | 6.25
GATA4 | 3 | -0.7 | -1.96 | 2.4
IFT38 | 1 | 0.548 | 6.82 | 7.66
IFT38 | 2 | 5.51 (active) | 41.7 | 21.4
IFT38 | 3 | 0.896 | 9.27 | 6.64

Called active, among the entries above:
gene symbol | reagent no. | G2 robust z-score | G2 cells, % of GMNN control | raw share of cells in G2 (%)
FBXL21P | 1 | 9.34 (active) | 68.7 | 30.2
IFT38 | 2 | 5.51 (active) | 41.7 | 21.4

More reagents:
gene symbol | reagent no. | G2 robust z-score | G2 cells, % of GMNN control | raw share of cells in G2 (%)
C16orf96 | 1 | 6.7 (active) | 50.1 | 21.2
C16orf96 | 2 | -0.607 | -1.31 | 2.69
C16orf96 | 3 | 0.444 | 6.09 | 6.64
SLC25A47 | 1 | 2.14 | 18 | 10.2
SLC25A47 | 2 | -0.597 | -1.23 | 2.57
SLC25A47 | 3 | -0.282 | 0.983 | 3.57
RPL31P57 | 1 | 0.542 | 6.78 | 5.2
RPL31P57 | 2 | -0.33 | 0.645 | 4.02
RPL31P57 | 3 | -0.929 | -3.57 | 1.9
STRADA | 1 | -1.1 | -4.74 | 4.11
STRADA | 2 | 5.95 (active) | 44.9 | 21.5
STRADA | 3 | 0.873 | 9.11 | 6.6
GABBR1 | 1 | 0.666 | 7.65 | 8.58
GABBR1 | 2 | 0.912 | 9.38 | 7.8
GABBR1 | 3 | 0.274 | 4.89 | 4.77
SOX6 | 1 | -0.0307 | 2.75 | 5.48
SOX6 | 2 | -0.232 | 1.33 | 7.01
SOX6 | 3 | 1.9 | 16.4 | 10.3
SLC18A3 | 1 | 3.59 | 28.3 | 13.3
SLC18A3 | 2 | -0.743 | -2.26 | 3.77
SLC18A3 | 3 | -1.32 | -6.3 | 3.56
ADGRE4P | 1 | -0.0151 | 2.86 | 6.87
ADGRE4P | 2 | -0.765 | -2.41 | 3.67
ADGRE4P | 3 | 0.0184 | 3.1 | 4.22
CBR3 | 1 | -1.44 | -7.16 | 1.32
CBR3 | 2 | 0.396 | 5.76 | 6.68
CBR3 | 3 | 0.481 | 6.35 | 7.33
MRPL28 | 1 | 3.88 | 30.3 | 16.6
MRPL28 | 2 | -0.895 | -3.33 | 2.19
MRPL28 | 3 | -0.518 | -0.676 | 5.02
POM121 | 1 | 1.34 | 12.4 | 10.9
POM121 | 2 | 0.526 | 6.67 | 6.73
POM121 | 3 | -0.391 | 0.214 | 3.48
KCTD4 | 1 | -0.423 | -0.0108 | 3.09
KCTD4 | 2 | 0.95 | 9.65 | 6.51
KCTD4 | 3 | 0.669 | 7.68 | 6.22
SLC17A9 | 1 | -1.08 | -4.6 | 2.58
SLC17A9 | 2 | 0.87 | 9.09 | 8.68
SLC17A9 | 3 | -1.13 | -4.98 | 1.38
